This is one part of the list. The data scatter; read single values as rough.
These targets were tested with ClCC(=O)N[C@@H]1CCCc2ccccc12 (assay: log2 mean competition ratio of IA-DTB cysteine labelling (DMSO/compound) (log2 ratio); higher = stronger cysteine engagement by compound). Settings: 50 µM; treatment time: 4 h; cell line lysate: HEK293T.
Protocol: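 IA-DTB competitive cysteine chemoproteomics in HEK293T RIPA lysate. Lysates were treated with compound 29 or 30 at 50 or 200 µM for 4 h, then IA-DTB (500 µM, 1 h), trypsin-digested, NeutrAvidin-enriched and analysed by diaPASEF. Competition ratio = intensity DMSO / intensity compound (n=4 treated, n=64 DMSO); binding: mean log2 CR ≥ 1 and p ≤ 0.05 plus QC filters. Target is the cysteine site.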

Chains of the proteins cited; added tags and fusions are not shown. Lines headed by an entry give the natural chain unless they say otherwise; changes in a name come on top. Residues count along the entry.
UniProt Q86Y79: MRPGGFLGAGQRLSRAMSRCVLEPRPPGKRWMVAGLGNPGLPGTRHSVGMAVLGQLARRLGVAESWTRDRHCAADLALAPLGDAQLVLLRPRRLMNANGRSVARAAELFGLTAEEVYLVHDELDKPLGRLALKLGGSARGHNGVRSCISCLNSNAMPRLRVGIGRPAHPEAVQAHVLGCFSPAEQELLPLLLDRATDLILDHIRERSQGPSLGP
UniProt Q9BZE2: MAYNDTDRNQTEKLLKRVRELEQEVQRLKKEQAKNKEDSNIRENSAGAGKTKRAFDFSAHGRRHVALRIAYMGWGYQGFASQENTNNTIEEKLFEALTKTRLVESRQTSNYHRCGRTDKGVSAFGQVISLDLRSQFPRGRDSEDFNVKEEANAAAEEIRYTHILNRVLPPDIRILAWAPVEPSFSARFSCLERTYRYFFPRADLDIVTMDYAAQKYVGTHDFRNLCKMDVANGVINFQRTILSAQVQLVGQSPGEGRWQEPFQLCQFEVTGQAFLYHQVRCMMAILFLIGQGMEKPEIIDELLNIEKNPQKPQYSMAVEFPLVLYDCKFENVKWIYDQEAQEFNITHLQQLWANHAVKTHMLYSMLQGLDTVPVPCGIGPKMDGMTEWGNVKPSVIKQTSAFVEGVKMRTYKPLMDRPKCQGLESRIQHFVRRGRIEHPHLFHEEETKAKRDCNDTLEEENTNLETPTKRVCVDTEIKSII
UniProt Q9Y617: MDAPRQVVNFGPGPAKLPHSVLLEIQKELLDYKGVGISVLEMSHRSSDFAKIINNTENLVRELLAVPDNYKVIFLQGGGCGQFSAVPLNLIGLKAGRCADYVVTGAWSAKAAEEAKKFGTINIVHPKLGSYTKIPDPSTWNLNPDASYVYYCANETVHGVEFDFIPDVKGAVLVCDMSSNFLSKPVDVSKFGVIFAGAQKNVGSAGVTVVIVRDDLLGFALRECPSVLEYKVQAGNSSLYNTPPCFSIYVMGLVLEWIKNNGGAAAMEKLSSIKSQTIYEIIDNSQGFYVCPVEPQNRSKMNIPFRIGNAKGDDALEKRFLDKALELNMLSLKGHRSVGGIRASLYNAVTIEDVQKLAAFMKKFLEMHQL
UniProt A2A3K4, 2-27: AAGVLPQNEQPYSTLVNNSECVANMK
UniProt O75127: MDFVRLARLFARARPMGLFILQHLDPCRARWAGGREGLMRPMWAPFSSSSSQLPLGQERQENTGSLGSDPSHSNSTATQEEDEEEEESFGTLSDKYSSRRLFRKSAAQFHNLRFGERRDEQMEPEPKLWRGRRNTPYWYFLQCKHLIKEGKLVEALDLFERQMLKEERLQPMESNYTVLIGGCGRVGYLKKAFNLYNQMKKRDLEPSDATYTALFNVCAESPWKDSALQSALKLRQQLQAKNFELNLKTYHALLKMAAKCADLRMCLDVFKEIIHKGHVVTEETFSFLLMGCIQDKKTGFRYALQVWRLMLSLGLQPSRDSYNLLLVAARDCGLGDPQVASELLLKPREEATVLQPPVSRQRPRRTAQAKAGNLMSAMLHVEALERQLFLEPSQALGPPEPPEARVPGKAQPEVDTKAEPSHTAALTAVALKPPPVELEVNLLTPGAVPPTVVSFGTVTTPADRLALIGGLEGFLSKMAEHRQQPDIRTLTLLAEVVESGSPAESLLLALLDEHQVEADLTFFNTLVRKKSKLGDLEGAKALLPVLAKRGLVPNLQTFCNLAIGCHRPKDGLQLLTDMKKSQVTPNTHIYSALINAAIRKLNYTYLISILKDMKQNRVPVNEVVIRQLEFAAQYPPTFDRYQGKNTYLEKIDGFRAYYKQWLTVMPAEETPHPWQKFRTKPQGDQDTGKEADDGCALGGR
UniProt P20338: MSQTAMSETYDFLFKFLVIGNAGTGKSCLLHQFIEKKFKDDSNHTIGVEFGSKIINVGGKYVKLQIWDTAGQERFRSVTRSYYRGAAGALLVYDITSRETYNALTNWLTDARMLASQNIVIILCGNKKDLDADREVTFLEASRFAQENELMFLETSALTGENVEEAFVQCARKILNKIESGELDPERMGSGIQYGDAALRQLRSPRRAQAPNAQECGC
UniProt Q9Y3P9: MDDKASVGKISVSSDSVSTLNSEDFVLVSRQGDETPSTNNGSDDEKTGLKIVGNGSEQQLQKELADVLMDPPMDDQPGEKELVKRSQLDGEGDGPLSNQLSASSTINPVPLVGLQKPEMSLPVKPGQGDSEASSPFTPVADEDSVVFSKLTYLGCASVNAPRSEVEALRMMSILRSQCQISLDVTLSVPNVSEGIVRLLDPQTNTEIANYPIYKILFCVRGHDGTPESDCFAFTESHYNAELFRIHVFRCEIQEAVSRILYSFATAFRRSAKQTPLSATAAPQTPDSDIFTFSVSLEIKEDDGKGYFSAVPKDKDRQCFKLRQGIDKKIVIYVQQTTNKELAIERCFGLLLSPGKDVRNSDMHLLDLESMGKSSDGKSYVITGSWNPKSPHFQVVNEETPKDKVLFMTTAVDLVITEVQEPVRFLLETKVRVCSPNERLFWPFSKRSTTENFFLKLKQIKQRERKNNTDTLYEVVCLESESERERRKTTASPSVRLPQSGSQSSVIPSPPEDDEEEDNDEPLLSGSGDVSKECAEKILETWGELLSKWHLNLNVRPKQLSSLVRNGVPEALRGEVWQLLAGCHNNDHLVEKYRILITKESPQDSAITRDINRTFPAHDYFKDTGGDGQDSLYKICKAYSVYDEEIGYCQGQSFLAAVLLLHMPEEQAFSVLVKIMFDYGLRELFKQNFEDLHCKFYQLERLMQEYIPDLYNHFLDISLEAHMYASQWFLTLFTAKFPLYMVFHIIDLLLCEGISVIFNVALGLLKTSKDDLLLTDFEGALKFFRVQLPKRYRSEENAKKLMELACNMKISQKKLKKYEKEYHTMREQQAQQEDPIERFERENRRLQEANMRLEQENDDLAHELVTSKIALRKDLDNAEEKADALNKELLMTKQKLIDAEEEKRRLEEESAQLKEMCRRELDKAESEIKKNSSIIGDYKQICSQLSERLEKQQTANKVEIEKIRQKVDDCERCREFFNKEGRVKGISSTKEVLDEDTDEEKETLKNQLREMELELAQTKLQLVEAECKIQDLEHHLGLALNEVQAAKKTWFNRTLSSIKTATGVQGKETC
UniProt Q14997: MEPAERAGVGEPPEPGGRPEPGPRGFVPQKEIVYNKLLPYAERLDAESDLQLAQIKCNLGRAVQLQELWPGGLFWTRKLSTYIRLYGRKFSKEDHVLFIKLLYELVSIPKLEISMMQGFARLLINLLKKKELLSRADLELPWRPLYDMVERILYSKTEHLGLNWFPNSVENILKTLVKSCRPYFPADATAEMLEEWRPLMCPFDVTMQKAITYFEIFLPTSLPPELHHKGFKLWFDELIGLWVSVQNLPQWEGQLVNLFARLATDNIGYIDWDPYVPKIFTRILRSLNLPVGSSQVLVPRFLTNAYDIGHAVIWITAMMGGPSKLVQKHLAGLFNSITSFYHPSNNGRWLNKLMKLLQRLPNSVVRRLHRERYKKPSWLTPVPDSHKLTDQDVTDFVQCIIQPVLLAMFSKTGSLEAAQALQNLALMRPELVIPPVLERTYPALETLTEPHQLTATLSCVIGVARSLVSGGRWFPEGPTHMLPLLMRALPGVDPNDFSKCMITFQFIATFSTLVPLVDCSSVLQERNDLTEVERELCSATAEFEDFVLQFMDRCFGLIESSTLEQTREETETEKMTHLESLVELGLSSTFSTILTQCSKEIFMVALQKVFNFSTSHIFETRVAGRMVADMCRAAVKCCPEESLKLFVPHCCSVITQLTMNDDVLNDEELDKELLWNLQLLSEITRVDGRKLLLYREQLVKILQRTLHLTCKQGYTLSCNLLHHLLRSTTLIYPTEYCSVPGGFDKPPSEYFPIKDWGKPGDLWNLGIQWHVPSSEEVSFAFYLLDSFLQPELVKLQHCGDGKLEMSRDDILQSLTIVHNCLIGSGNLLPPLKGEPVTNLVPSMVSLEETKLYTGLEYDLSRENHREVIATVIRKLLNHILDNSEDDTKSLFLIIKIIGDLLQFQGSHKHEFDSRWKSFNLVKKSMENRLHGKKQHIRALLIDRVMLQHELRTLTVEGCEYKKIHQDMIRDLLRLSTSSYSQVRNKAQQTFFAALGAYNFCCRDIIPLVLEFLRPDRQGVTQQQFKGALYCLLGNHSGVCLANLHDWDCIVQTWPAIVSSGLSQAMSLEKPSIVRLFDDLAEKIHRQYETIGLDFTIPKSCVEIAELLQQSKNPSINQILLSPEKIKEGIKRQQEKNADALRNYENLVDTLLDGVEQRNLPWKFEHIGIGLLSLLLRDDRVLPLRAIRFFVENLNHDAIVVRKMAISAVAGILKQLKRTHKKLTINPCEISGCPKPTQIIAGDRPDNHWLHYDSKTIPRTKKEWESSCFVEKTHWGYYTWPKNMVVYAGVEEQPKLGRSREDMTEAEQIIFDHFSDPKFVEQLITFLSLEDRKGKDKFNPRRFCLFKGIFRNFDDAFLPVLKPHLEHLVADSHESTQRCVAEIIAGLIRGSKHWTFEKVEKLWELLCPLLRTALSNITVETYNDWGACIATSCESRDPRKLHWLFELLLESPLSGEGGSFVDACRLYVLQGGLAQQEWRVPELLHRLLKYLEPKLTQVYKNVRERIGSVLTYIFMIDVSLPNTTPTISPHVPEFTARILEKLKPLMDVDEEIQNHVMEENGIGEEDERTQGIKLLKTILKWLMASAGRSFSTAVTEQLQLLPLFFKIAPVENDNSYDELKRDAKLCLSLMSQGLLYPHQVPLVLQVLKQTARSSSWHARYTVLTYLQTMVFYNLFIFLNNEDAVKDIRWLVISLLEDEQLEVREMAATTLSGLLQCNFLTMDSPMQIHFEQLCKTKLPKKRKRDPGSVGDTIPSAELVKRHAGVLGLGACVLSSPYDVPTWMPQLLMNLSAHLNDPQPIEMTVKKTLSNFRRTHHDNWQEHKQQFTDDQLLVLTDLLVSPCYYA
UniProt O60671, 134-155: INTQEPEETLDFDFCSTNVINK
UniProt Q05397, whole entry, looked up: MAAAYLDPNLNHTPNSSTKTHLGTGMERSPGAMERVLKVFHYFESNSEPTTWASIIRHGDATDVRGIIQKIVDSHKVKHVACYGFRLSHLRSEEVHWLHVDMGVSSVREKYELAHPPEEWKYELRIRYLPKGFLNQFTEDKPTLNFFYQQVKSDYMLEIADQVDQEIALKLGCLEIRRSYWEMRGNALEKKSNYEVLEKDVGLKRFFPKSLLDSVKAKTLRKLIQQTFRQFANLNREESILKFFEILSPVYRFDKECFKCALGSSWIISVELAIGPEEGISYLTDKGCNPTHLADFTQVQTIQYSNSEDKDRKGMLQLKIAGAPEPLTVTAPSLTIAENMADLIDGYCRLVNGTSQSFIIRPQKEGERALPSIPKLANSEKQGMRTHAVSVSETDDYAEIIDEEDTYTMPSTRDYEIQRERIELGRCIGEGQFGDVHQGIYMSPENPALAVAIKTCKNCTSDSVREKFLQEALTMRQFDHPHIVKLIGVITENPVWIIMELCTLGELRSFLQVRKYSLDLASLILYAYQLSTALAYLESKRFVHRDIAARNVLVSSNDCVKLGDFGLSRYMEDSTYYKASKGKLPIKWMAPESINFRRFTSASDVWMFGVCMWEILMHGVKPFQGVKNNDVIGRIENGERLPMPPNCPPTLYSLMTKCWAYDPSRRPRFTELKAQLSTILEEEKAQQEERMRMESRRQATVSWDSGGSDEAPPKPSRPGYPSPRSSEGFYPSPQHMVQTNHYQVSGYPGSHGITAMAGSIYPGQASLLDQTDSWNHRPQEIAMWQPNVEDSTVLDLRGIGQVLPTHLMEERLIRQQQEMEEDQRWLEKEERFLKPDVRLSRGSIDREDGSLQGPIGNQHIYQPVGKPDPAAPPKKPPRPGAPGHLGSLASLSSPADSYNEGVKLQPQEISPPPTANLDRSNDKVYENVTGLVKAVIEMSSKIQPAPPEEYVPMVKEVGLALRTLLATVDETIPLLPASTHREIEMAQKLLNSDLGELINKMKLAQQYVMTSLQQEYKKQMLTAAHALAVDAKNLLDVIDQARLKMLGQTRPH
UniProt P43686: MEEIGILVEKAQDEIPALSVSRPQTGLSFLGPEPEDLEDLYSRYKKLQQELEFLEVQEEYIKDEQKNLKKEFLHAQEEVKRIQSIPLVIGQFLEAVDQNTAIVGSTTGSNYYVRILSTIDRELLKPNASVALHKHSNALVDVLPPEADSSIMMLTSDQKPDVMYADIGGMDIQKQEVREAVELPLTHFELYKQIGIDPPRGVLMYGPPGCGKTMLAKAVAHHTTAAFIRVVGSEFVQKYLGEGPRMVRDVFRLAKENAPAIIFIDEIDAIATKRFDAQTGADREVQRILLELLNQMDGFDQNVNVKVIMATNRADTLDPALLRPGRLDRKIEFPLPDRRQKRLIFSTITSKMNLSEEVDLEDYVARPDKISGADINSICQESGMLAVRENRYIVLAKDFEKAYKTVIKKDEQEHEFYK

Target | log2 mean competition ratio
RAB3IL1 C29 | -0.0951
PTRH1 C20 (UniProt Q86Y79) | -0.155
PSMB2 C91 | 0.215
RAB28 C169 (UniProt P51157) | 0.244
PUS3 C453 (UniProt Q9BZE2) | -0.199
RABL2B C26 | 0.0502
PRRC2B C1184 | -0.000487
PSAT1 C224 (UniProt Q9Y617) | 0.105
PTPDC1 C22 (UniProt A2A3K4) | -0.275
PSIP1 C204 | -0.445
PTPN13 C1812 (UniProt Q12923) | -0.224
PTCD1 C332 (UniProt O75127) | 0.398
PSMD2 C779 (UniProt Q13200) | 0.0883
RAB4A C28 (UniProt P20338) | -0.182
RABGAP1 C1026 (UniProt Q9Y3P9) | 0.617
PSME4 C958 (UniProt Q14997) | -0.251
PRRC2C C2788 (UniProt Q9Y520) | -0.0203
RAD1 C148 (UniProt O60671) | 0.111
PTK2 C459 (UniProt Q05397) | 0.0397
PSMC4 C210 (UniProt P43686) | 0.693

Same assay, conditions: 200 µM; treatment time: 4 h; cell line lysate: HEK293T

Target | log2 mean competition ratio
RAB3IL1 C29 | 0.319
PTRH1 C20 (UniProt Q86Y79) | -0.107
PSMB2 C91 | 0.153
RAB28 C169 (UniProt P51157) | -0.188
PUS3 C453 (UniProt Q9BZE2) | -0.015
RABL2B C26 | 0.11
PRRC2B C1184 | 0.125
PSAT1 C224 (UniProt Q9Y617) | -0.279
PTPDC1 C22 (UniProt A2A3K4) | -0.313
PSIP1 C204 | 0.137
PTPN13 C1812 (UniProt Q12923) | -0.179
PTCD1 C332 (UniProt O75127) | -0.0273
PSMD2 C779 (UniProt Q13200) | -0.0617
RAB4A C28 (UniProt P20338) | 0.451
RABGAP1 C1026 (UniProt Q9Y3P9) | 0.0339
PSME4 C958 (UniProt Q14997) | 0.101
PRRC2C C2788 (UniProt Q9Y520) | 0.0633
RAD1 C148 (UniProt O60671) | 0.266
PTK2 C459 (UniProt Q05397) | 0.0768
PSMC4 C210 (UniProt P43686) | 0.299
